Experimental data: PubChem BioAssay AID652272 (Drosophila RNAi Screening Center, 2013)

- Aim: 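Finding fly genes that regulate Hedgehog signal transduction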 (primary screen)
- Cell system: Drosophila clone 8 (Cl8) cells
- Knock-down reagent: long dsRNA against Drosophila genes
- Detection: 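Firefly light from a Hedgehog-responsive ptc promoter reporter and Renilla reference light, both read on a plate reader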
- Reading the numbers: firefly Hh reporter signal: higher = more ptc reporter light; Renilla reference signal: higher = more Renilla control light
- Hit rule: 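Called a hit if the two-replicate mean z-score lies below -2 or above +3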
- Meaning of the calls: active = hit: reporter lowered or raised; inactive = not a hit
The screen tested about 21,000 reagents; below is an unselected part of those that have a named target and a result. In the full data, 503 (2.4%) got an active call. 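Raw plate light values, not normalised; calls rest on replicate z-scores that were not deposited; hits include reporter decreases as well as increases.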 Reagents against one gene are numbered here. Names joined by + are all predicted targets of the reagent. The record does not give: the amount of reagent, the time to read-out.

Target gene	dsRNA no.	firefly Hh reporter signal, replicate 1	firefly Hh reporter signal, replicate 2	firefly Hh reporter signal, replicate 3	Renilla reference signal, replicate 1	Renilla reference signal, replicate 2	Outcome
CG13319 (GeneID 36423)	1	5.91e5	1.17e5		5396	5396	inactive
CG11368 (GeneID 50397)	1	83443	1.82e5		2604	6971	inactive
CG1137 (GeneID 40803)	1	48584	72407		1794	2168	inactive
gdl-ORF39 + gdl	1	1.23e5			5339	3445	inactive
Ccz1 (GeneID 38455)	1	69779	32100		2026	2779	inactive
Cyp12b2 (GeneID 37163)	1	95544	46392		2722	3578	inactive
CG15404 (GeneID 33537)	1	1.09e5	45940		2749	4624	inactive
CG13047 (GeneID 39790)	1	1.76e5			7008	4578	inactive
MTF-1 (GeneID 39089)	1	1.04e5	2.02e5		2944	8480	inactive
MTF-1 (GeneID 39089)	2	17269	57275	8.24e5	5819	4273	inactive
Ir94e (GeneID 42765)	1	8.34e5	6.35e5	1.64e5	44497	5874	inactive
CR30029 (GeneID 5740197)	1	1.15e5	66091		2785	5591	inactive
CG32148 (GeneID 251924)	1	2.22e5			5660		inactive
CG8584 (GeneID 35856)	1	65473	49946		1413	4163	inactive
CG34174 (GeneID 5740699)	1	5.83e5	2.57e5		27067	9777	inactive
conu (GeneID 3355133)	1	1.25e5	3.43e5		3545	13552	inactive
Lipt2 (GeneID 40565)	1	1.87e5	7.59e5	1.15e5	8277	44790	inactive
Pebp1 (GeneID 42644)	1	7.74e5	1.43e5		51965	365	inactive
Sgs5bis (GeneID 42113)	1	81573	92784		2660	2365	inactive
18w (GeneID 37277)	1	72144	66827		3143	2715	inactive
snf (GeneID 31442)	1	1.01e5	64741		2865	2173	inactive
drk (GeneID 36497)	1	1.30e5	91730		4517	2704	inactive
CG16787 (GeneID 37811)	1	1.11e5	70309		3141	6064	inactive
Sgf11 (GeneID 40035)	1	1.21e5			5049	3543	inactive
Mad (GeneID 33529)	1	1.30e5	58679		3065	5803	inactive
CG46301 (GeneID 34829)	1	1.79e5	7.20e5	71155	4602	42720	inactive
PIG-T (GeneID 31772)	1	78761	1.99e5		2448	6770	inactive
Grx1 (GeneID 40053)	1	86468			5381	3126	inactive
Smyd4-3 (GeneID 36234)	1	86194	38992		3495	1730	inactive
CG32109 (GeneID 39444)	1	33461	60843	71444	6597	5610	inactive
GstD8 (GeneID 48341)	1	69209	1.61e5		2151	3878	inactive
CG34266 (GeneID 5740465)	1	44356	43339		2883	3335	inactive

4 entries already listed, ordered by “Renilla reference signal, replicate 1”, highest first.
Target gene	dsRNA no.	firefly Hh reporter signal, replicate 1	firefly Hh reporter signal, replicate 2	firefly Hh reporter signal, replicate 3	Renilla reference signal, replicate 1	Renilla reference signal, replicate 2	Outcome
Sgf11 (GeneID 40035)	1	1.21e5			5049	3543	inactive
drk (GeneID 36497)	1	1.30e5	91730		4517	2704	inactive
CG16787 (GeneID 37811)	1	1.11e5	70309		3141	6064	inactive
Mad (GeneID 33529)	1	1.30e5	58679		3065	5803	inactive

Continued.
Target gene	dsRNA no.	firefly Hh reporter signal, replicate 1	firefly Hh reporter signal, replicate 2	firefly Hh reporter signal, replicate 3	Renilla reference signal, replicate 1	Renilla reference signal, replicate 2	Outcome
Cpr47Ed (GeneID 36192)	1	96405	50516		2424	3895	inactive
l(1)G0320 (GeneID 326234)	1	79298	52689		2129	1305	inactive
CG7810 (GeneID 34139)	1	55693	89233		2316	3445	inactive
CG16978 (GeneID 50446)	1	1.30e5	61456		3250	4951	inactive
Prp3 (GeneID 40172)	1	58849	55440		2891	2280	active
CG17776 (GeneID 50373)	1	94956	2.80e5		3956	9299	inactive
CG3355 (GeneID 33667)	1	75844	28717		2049	3096	inactive
MFS15 (GeneID 37168)	1	76011	40641		1835	1270	inactive
CG10332 (retired record) + IM18	1	83472	62720		1908	5319	inactive
CG16749 (GeneID 41111)	1	78555	1.16e5		2236	2977	inactive
POLDIP2 (GeneID 40655)	1	1.27e5	1.10e5		4977	4085	inactive
CG31459 (GeneID 318746)	1	54842	2.26e5		12075	5424	inactive
CG14370 (GeneID 41659)	1	68987	82784		2327	2224	inactive
Oat (GeneID 40145)	1	71889	51565		3061	1963	inactive
Men (GeneID 47173)	1	31556	2.14e5		5203	2689	inactive
Men (GeneID 47173)	2	1.93e5	5.23e5	1.99e5	7675	4567	inactive
DIP-zeta (GeneID 34231)	1	1.25e5	84683		3046	6723	inactive
DIP-zeta (GeneID 34231)	2	1.30e5	98203		3193	8016	inactive
DIP-zeta (GeneID 34231)	3	88530	46571		2389	4353	inactive
Lip4 (GeneID 34450)	1	83168	59304		2225	5400	inactive
Clbn (GeneID 43018)	1	5.38e5	74550		27319	2468	inactive
CG34238 (GeneID 5740238)	1	1.12e5	2.53e5		3284	10155	inactive
CG32706 + CG6999	1	92086	4.73e5		3216	16166	inactive
mle (GeneID 35523)	1	88608	68793		1754	4715	inactive
CG5013 (GeneID 41951)	1	70928	94555		1564	6428	inactive
